PubChem BioAssay AID1259308 | NCATS, 2017
The whole screen tested about 59,000 reagents; this is an unselected part. About 1,510 of them (2.6%) were called active. 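Calls use total luciferase alone and ignore viability, so some active siRNAs may act by altering cell number.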 Unmarked entries are inactive. The numbers tell different reagents against one gene apart. Further read-outs or replicates are left out here.

- Purpose: 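Genes whose loss raises luciferase production in HEK293 cells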 (primary screen)
- System: human HEK293 embryonic kidney cells stably expressing firefly luciferase (HEK-CMV-Luc2-Hygro)
- Knock-down reagent: single siRNA against human genes, 0.8 pmol siRNA per well
- Duration: 72 h
- Measured: 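Reporter luminescence and viable-cell signal on separate replicate plates, given as percent of non-targeting control and median/MAD z-scores, plus per-cell luciferase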
- Scale: total luciferase, z-score: higher = more reporter protein produced
- Hit rule: 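Active when the median/MAD z-score for overall luciferase is greater than 3; a gene was taken forward for validation with new siRNAs if at least two of its three siRNAs passed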
- Meaning of the calls: active = raised luciferase; inactive = no rise

total luciferase, z-score, by gene and reagent
APOC1: #1 -0.0816; #2 0.421; #3 -1.39
LNPEP: #1 -0.496; #2 -0.761; #3 3.21 (active)
OR5AS1: #1 2.05; #2 -0.0206; #3 -0.347
RHO: #1 -1.1; #2 -0.493; #3 -0.437
RPL32: #1 -2.53; #2 -2.38; #3 -0.453
CD5L: #1 0.0257; #2 0.441; #3 0.339
SPATS1: #1 -0.183; #2 0.0106; #3 -0.012
TMPRSS11A: #1 0.535; #2 0.494; #3 -0.518

Reformatted: 4 of the entries above.
RHO #1 — total luciferase, z-score: -1.1
RHO #2 — total luciferase, z-score: -0.493
RHO #3 — total luciferase, z-score: -0.437
RPL32 #1 — total luciferase, z-score: -2.53
